Results published in paper PMC12187917.
No constants are given. Whether binding was seen depends on the method and setting. Binding seen in cells or lysates may run through a third protein. Some results given as binding are weak or reduced against the parent protein; the word gives no strength.

By UniProt entry, the sequences of proteins in these tests, tags left out. Where a name states a change or a piece, a line headed by the entry shows the natural chain unless it says otherwise.
UniProt O70436: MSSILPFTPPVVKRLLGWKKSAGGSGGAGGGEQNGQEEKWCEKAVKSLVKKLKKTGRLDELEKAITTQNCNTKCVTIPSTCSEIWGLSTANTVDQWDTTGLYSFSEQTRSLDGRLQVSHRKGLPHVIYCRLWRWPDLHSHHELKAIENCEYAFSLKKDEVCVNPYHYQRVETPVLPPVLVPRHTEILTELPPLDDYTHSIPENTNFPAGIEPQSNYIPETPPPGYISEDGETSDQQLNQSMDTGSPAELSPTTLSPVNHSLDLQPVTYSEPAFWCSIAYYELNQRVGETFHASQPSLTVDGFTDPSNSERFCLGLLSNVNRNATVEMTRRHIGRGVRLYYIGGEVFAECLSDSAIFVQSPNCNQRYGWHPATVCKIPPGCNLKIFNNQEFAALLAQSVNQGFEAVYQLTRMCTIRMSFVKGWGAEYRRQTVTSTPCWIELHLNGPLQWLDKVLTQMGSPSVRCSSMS
UniProt P84025: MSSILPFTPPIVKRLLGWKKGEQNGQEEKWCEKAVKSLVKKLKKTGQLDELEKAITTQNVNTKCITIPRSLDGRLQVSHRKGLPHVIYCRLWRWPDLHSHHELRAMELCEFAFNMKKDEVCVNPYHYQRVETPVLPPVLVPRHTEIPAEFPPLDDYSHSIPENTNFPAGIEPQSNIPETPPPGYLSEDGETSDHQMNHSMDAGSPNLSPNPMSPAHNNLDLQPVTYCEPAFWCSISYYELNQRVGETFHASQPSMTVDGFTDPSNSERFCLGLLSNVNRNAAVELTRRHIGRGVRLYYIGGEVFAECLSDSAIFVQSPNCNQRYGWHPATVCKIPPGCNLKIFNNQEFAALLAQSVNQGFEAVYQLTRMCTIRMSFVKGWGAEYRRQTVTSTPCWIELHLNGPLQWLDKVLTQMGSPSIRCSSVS
UniProt Q01714: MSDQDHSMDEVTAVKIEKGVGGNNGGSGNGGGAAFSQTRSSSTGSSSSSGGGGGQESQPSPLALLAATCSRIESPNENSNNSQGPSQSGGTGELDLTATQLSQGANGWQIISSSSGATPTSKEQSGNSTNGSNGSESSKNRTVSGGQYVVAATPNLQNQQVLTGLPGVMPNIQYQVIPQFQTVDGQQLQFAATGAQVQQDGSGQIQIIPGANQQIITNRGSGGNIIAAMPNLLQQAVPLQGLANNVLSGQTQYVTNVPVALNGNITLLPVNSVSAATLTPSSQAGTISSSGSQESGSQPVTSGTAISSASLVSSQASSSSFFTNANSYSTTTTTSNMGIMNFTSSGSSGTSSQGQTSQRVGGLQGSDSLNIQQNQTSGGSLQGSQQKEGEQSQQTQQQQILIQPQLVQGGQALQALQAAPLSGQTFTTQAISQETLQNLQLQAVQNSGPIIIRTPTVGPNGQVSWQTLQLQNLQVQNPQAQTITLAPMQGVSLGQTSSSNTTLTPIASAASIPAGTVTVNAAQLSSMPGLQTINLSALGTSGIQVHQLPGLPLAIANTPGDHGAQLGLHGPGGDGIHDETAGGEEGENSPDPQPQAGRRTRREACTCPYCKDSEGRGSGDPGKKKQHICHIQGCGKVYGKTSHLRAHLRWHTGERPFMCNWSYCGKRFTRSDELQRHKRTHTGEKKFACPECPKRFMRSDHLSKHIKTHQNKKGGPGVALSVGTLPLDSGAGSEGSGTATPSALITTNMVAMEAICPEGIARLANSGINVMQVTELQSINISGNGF

Molecular target: Smad2/3 complex (rat (endogenous in SD rat hippocampus)) (UniProt O70436+P84025)
Test: co-IP; nuclear protein fraction of hippocampal tissue of control and AngII-treated rats; Smad2/3 antibody incubated with the samples overnight at 4 °C, washed with PBS, boiled; western blots for Sp1, c-Jun, c-Fos, IRF-7

## specificity protein 1 (Sp1) (from UniProt Q01714 1-786)
  binding: binds
